Data on 27 molecules can be found in the supplement of paper PMC12542422.

The structures appear in SMILES notation. Where a name gives a salt, the structure may show the parent alone. ± gives the standard deviation of the averaged measurements. The list shows a part of the results. These are raw signals, not scaled to a control.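 Ribosome-assembly readouts in HeLa cells were imaged via ENP1 staining, with or without export block, or inducible tagged ribosomal protein reporters. Machine learning classified per-cell signal location versus solvent (DMSO) controls. Hits surpassed the DMSO false-positive mean by five standard deviations and were visually confirmed; three biological replicates.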

The test system of this assay is HeLa K (ENP1 immunofluorescence, +LMB). Briefly: fraction of cells with nucleolar or nucleolar/nucleoplasmic ENP1 signal (MainHitrate); higher = more cells with nucleolar/nuclear readout signal (for ENP1 -LMB: less RNAPI inhibition; for +LMB ENP1 and RP reporters: stronger nuclear/nucleolar retention, i.e. ribosome biogenesis defect). The following applies: concentration: 1 µM; treatment time: 6 h; ENP1 +LMB; leptomycin B: 20 nM, last 1.5 h.
`CCOC(=O)c1ccc(C#Cc2ccc3c(c2)C(C)(C)CCS3)nc1` [Tazarotene (Avage)] returned a fraction of 0.0965 ± 0.093.

`CC(C)CC(N)=O` [Isovaleramide] registered a fraction of 0.0589 ± 0.074.

With `O=c1n(CCCN2CCN(c3cccc(Cl)c3)CC2)nc2ccccn12` [Trazodone hydrochloride (Desyrel)], the fraction was determined as 0.044 ± 0.036.

On to `Clc1ccc(C(Cn2ccnc2)OCc2c(Cl)cccc2Cl)c(Cl)c1` (configuration not stated) [Isoconazole nitrate (Travogen)], for which the fraction came to 0.133 ± 0.18.

`C=CCNC(N)=S` [Allylthiourea] showed a fraction of 0.0735 ± 0.086.

The molecule `OC[C@H]1O[C@H](O[C@]2(CCl)O[C@H](CCl)[C@@H](O)[C@@H]2O)[C@H](O)[C@@H](O)[C@H]1Cl` [Sucralose] displayed a fraction of 0.0983 ± 0.14.

Regarding `CCC(=O)O[C@]1(C(=O)SCF)[C@H](C)C[C@H]2[C@@H]3C[C@H](F)C4=CC(=O)C=C[C@]4(C)[C@@]3(F)[C@@H](O)C[C@@]21C` [Fluticasone propionate (Flonase, Veramyst)], the fraction stood at 0.0674 ± 0.093.

Turning to `Nc1ncnc2c1ncn2[C@@H]1O[C@H](CO)[C@@H](O)[C@H]1O` [Adenosine (Adenocard)], the fraction came to 0.113 ± 0.13.

With `CCCN(CCC)CCc1cccc2c1CC(=O)N2` [Ropinirole HCl], the fraction is 0.0904 ± 0.13.

In turn, `O=C(O)CCCC[C@@H]1SC[C@@H]2NC(=O)N[C@@H]21` [Biotin (Vitamin B7)] displayed a fraction of 0.0727 ± 0.098.

In turn, `CN1CCCCC1CCN1c2ccccc2Sc2ccc([S+](C)[O-])cc21` (configuration not stated) [Mesoridazine Besylate] came in with a fraction of 0.0893 ± 0.12.

The molecule `CC1(C)S[C@@H]2[C@H](NC(=O)Cc3ccccc3)C(=O)N2[C@H]1C(=O)O` [Benzylpenicillin sodium] displayed a fraction of 0.045 ± 0.066.

`CCOC(CN1CCN(CC(C)C(=O)c2ccccc2)CC1)c1ccccc1` (configuration not stated) [Eprazinone 2HCl] came in with a fraction of 0.0498 ± 0.059.

Turning to `Cc1cc(C(C)(C)C)c(O)c(C)c1CC1=NCCN1` [Oxymetazoline hydrochloride], the fraction amounted to 0.135 ± 0.18.

In turn, `CO[C@H]1C(=O)[C@]2(C)[C@@H](OC)C[C@H]3OC[C@@]3(OC(C)=O)[C@H]2[C@H](OC(=O)c2ccccc2)[C@]2(O)C[C@H](OC(=O)[C@H](O)[C@@H](NC(=O)OC(C)(C)C)c3ccccc3)C(C)=C1C2(C)C` [Cabazitaxel (Jevtana)] returned a fraction of 0.119 ± 0.15.

For the molecule `Nc1nc(Cl)nc2c1ncn2[C@H]1C[C@H](O)[C@@H](CO)O1` [Cladribine], the fraction amounted to 0.0618 ± 0.051.

For `COc1cc(C(=O)NC2CCCNC2)cc(OC)c1OC` (configuration not stated) [Troxipide], the fraction is 0.112 ± 0.16.

For `CNC(=C[N+](=O)[O-])NCCSCc1csc(CN(C)C)n1` [Nizatidine], the fraction came to 0.14 ± 0.21.

Regarding `CC(=O)Oc1cc2c(s1)CCN(C(C(=O)C1CC1)c1ccccc1F)C2` (configuration not stated) [Prasugrel (Effient)], the fraction turned out to be 0.157 ± 0.15.

`CC1=NN(c2ccccc2)C(=O)C1` [Edaravone (MCI-186)] displayed a fraction of 0.0868 ± 0.064.

Turning to `[O-][n+]1cccc(CO)c1` [Mepiroxol], the fraction was 0.0795 ± 0.089.

The molecule `CN1CCc2cccc3c2[C@H]1Cc1ccc(O)c(O)c1-3` [R-(-)-Apomorphine HCl Hemihydrate] came in with a fraction of 0.167 ± 0.24.

As for `c1ccc(C2CN3CCSC3=N2)cc1` (configuration not stated) [Tetramisole HCl], the fraction stood at 0.0619 ± 0.081.

`CCC[C@@H]1C[C@@H](C(=O)N[C@@H]([C@H]2O[C@H](SC)[C@H](O)[C@@H](O)[C@H]2O)[C@H](C)Cl)N(C)C1` [Clindamycin] came in with a fraction of 0.142 ± 0.22.

`N[C@@H](Cc1cc(I)c(Oc2cc(I)c(O)c(I)c2)c(I)c1)C(=O)O` [L-Thyroxine]: the fraction was 0.0539 ± 0.067.

`COc1c2ccoc2cc2oc(=O)ccc12` [Bergapten] registered a fraction of 0.0659 ± 0.084.

The molecule `O=NO` [Sodium nitrite] had a fraction of 0.14 ± 0.21.
